The target in this test is T1, DCLK1 isoform 1 purified protein (human) (UniProt O15075).
T1 sequence (looked up): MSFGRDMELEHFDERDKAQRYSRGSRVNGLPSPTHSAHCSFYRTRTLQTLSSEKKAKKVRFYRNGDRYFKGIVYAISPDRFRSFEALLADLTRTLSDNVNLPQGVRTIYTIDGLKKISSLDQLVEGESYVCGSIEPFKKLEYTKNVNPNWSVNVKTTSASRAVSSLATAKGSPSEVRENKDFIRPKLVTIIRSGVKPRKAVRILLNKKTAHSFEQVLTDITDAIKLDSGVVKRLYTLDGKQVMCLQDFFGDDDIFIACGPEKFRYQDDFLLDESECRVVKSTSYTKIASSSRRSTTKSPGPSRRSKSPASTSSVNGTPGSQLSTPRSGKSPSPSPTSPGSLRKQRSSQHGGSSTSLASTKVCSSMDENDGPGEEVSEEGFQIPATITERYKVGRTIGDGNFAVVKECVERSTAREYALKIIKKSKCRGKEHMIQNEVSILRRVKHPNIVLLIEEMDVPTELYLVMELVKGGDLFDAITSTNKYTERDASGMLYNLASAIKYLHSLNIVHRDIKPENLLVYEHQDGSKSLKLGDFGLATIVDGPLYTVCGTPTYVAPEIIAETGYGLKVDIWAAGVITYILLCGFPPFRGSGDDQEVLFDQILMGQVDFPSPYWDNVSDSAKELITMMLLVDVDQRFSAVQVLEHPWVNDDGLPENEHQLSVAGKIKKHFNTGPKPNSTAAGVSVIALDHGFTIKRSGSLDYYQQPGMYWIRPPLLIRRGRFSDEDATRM
Kind of test: ELISA on purified protein. For orientation: ELISA stands for enzyme-linked immunosorbent assay.

These are yes or no findings as the source states them, for the method shown. Some entries that bind do so weakly or less than the wild type.

B1: CBT-15G monoclonal antibody (antibody, V domains shown)
VH: EVQLQQSGTALARPGASVKMSCKASGYSFTSYWMHWVKQRPGQGLEWIGAIYPGKSDTSYNQKFKGKAKLTAVTSASTAYMELSSLTNEDSAVYYCTRYGKGAMDYWGQGTSVTVSS
VL: DIVLTQSHKFMSTSVGDRVTITCKASQDVNTAVAWYQKKPGQSPKLLIYWASTRLTGVPDRFTGSGSGTDYTLTISSVQAEDLALYYCQQHYSTPYTFGGGTKLEIK
In the case of B1, the binding entry is reported as “binds”.

These data come from patent publication US20210189007A1.
